The record followed here is article PMC5068962.

Chains of the proteins cited; added tags and fusions are not shown. Lines headed by an entry give the natural chain unless they say otherwise; changes in a name come on top.
UniProt Q9BL54: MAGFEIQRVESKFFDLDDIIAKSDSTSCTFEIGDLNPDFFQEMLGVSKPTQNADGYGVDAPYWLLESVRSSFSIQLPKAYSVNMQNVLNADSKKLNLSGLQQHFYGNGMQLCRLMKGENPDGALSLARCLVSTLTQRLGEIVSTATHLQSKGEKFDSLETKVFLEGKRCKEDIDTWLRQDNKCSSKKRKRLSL

Assay [1] has as its target T1, 6x(His)-PSF-1 (C. elegans) (UniProt Q22019).
T1 sequence: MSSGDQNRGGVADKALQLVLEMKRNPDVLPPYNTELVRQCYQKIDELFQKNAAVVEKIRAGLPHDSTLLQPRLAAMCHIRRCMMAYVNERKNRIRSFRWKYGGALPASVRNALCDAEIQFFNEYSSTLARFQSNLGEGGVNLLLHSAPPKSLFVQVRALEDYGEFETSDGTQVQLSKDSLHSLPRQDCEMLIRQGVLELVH
Briefly: pull-down; double tag affinity co-purification of four subunits co-expressed in E. coli BL21: soluble lysate on His-Trap HP (eluted with 300 mM imidazole), then Strep-Trap (eluted with 2.5 mM desthiobiotin); 0.15 M NaCl, 50 mM Hepes pH 6.8; Coomassie and immunoblot against Strep, 6xHis and PSF-3.

For the next assay, the target named is Strep-SLD-5 (C. elegans). The assay is described as above.

These are yes or no findings as the source states them, for the method shown. In cells and extracts the contact can be indirect. Binding calls can cover weak binding; strength is not graded here. Sequences can lack the tags named with a protein.

Regarding “PSF-3 (recombinant, from pLP963) (from UniProt Q9BL54)”, in assay [1], the binding result is recorded as “binds”.

B1: 6x(His)-PSF-1 (protein, UniProt Q22019 1-201)
chain: MSSGDQNRGGVADKALQLVLEMKRNPDVLPPYNTELVRQCYQKIDELFQKNAAVVEKIRAGLPHDSTLLQPRLAAMCHIRRCMMAYVNERKNRIRSFRWKYGGALPASVRNALCDAEIQFFNEYSSTLARFQSNLGEGGVNLLLHSAPPKSLFVQVRALEDYGEFETSDGTQVQLSKDSLHSLPRQDCEMLIRQGVLELVH
B1: the binding entry in the assay with Strep-SLD-5 (C. elegans) is “binds”.
